Data set [1] concerns the target PARP-1 full length (Homo sapiens) (UniProt P09874). Kind of data set: smFRET / FRET-FCS. The settings on record: niraparib, unkinked state increased, diffusion time 1976 us vs 1303 us free DNA; C2-linker on T18 and T37; recombinant protein; label: Alexa647 at T18, ATTO550 at T37; folded or branched DNA.
The target of another data set is hXRCC1 (Homo sapiens) (UniProt P18887). As to the kind of experiment: smFRET / FRET-FCS. The settings on record: no PARP-1, DNA conformation unchanged, diffusion time increased; C2-linker on T18 and T37; recombinant protein; protein details: C-terminal His6; label: Alexa647 at T18, ATTO550 at T37; folded or branched DNA.
A further data set deals with PARP-1 F2 (Homo sapiens) (UniProt P09874). As to the kind of experiment: smFRET / FRET-FCS. The settings on record: intermediate kink; C2-linker on T18 and T37; recombinant protein; residues 103-214; label: Alexa647 at T18, ATTO550 at T37; folded or branched DNA.
In the next data set the target is PARP-1 F1 (Homo sapiens) (UniProt P09874). Kind of data set: smFRET / FRET-FCS. The settings on record: DNA stays straight, less bound than F2 at equal concentration; C2-linker on T18 and T37; recombinant protein; residues 1-103; label: Alexa647 at T18, ATTO550 at T37; folded or branched DNA.
In a further data set the test system is PARP-1 F2 + hXRCC1. Kind of data set: smFRET / FRET-FCS. The settings on record: XRCC1 with F2: three states, E=0.51, 0.70, 0.85; C2-linker on T18 and T37; recombinant protein; protein details: C-terminal His6; label: Alexa647 at T18, ATTO550 at T37; folded or branched DNA.
Data set [2] deals with PARP-1 full length + hXRCC1. Kind of data set: smFRET / FCS. As to conditions: 1 uM PARP-1, diffusion time increased, no FRET change; C2-linker on T18 and T37; recombinant protein; label: Alexa647 at T18, ATTO550 at T37; folded or branched DNA.
Data set [3] addresses PARP-1 full length (Homo sapiens) (UniProt P09874). As to the kind of experiment: smFRET. As to conditions: C2-linker on T18 and T37, recombinant protein, label: Alexa647 at T18, ATTO550 at T37, folded or branched DNA.
Data set [4] has as its target PARP-1 F1F2 (Homo sapiens) (UniProt P09874). As to the kind of experiment: smFRET. The settings on record: 1 uM F1F2, kinked DNA, E=0.86; C2-linker on T18 and T37; recombinant protein; residues 1-214; label: Alexa647 at T18, ATTO550 at T37; folded or branched DNA.

Amino acid sequences for entries named in this document (tags omitted). A change or cut given only in a name is not applied to a line headed by its entry. Residues count along the entry.
UniProt P09874, whole entry: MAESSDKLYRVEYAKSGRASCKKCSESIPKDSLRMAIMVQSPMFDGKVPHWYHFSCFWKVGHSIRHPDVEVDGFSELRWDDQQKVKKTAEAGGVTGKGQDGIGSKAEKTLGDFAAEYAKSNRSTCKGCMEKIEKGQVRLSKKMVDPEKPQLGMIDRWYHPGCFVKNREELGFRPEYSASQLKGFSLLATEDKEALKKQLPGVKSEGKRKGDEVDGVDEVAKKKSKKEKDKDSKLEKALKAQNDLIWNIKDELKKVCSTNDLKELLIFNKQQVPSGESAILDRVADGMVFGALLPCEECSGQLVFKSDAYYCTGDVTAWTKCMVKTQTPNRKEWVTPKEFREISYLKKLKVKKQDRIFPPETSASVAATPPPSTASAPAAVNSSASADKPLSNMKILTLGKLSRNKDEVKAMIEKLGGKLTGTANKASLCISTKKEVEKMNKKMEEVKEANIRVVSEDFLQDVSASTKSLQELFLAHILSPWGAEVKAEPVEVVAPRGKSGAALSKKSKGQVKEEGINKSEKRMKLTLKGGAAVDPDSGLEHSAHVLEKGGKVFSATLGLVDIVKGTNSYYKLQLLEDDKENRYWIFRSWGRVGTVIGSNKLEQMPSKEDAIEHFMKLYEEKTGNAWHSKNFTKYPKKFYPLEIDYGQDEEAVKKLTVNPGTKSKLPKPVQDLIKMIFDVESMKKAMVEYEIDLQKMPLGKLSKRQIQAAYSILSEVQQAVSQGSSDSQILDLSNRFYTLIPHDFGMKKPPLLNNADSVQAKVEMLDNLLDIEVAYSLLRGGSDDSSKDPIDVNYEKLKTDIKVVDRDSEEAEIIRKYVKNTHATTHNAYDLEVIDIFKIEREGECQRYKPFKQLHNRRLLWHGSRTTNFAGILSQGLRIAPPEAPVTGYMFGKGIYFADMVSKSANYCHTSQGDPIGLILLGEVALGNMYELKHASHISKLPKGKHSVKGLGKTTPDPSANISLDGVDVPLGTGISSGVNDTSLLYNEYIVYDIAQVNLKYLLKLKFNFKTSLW
UniProt P09874, 103-214: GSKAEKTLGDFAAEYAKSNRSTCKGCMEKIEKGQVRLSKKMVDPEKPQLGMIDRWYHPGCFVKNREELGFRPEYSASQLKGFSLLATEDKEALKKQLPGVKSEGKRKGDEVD
UniProt P09874, 1-103: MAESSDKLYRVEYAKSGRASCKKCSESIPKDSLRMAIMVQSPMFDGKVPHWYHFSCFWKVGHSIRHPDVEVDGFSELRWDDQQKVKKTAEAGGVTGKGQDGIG
UniProt P09874, 1-214: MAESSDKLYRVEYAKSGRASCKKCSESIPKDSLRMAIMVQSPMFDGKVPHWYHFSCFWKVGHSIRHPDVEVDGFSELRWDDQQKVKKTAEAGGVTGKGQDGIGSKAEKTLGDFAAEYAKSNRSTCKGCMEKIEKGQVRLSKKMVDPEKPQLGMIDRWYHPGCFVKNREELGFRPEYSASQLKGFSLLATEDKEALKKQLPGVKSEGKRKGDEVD
UniProt P18887: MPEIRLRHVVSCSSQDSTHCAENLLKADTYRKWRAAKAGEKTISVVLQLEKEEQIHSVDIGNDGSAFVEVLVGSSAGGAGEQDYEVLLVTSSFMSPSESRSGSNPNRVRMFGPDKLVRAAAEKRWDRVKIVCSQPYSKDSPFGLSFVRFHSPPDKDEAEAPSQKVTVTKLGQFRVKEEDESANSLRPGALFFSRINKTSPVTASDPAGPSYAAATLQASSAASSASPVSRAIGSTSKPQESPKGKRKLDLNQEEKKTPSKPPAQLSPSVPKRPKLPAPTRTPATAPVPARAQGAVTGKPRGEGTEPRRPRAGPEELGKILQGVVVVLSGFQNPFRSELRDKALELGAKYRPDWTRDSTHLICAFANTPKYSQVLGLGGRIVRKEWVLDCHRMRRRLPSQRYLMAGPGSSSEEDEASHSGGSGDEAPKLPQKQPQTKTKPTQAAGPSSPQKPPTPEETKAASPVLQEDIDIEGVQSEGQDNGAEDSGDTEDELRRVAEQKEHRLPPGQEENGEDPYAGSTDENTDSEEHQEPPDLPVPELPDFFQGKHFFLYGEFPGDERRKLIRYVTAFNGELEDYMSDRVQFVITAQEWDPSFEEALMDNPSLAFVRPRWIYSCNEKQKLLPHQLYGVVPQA

For at least one entry, the source does not settle the construct or the ends of the probe. For some of these results: Weaker means in comparison with the reference protein, sequence or condition of that experiment. For some of these results: At least one verdict rests on a figure or table, not on a statement of the authors.

Regarding “GCTGGCTGATCGTAAGATCAGCCAGCCGCGGTCGGCTGTCAGCTTGCTGACAGCCGACCGCG [DNAATTO nicked dumbbell]”, the binding result is listed as “binds” in data set [1]; “binds” with hXRCC1 (Homo sapiens); “binds” with PARP-1 F2 (Homo sapiens); “binds more weakly” with PARP-1 F1 (Homo sapiens); “binds” in the data set with PARP-1 F2 + hXRCC1; “binds” in data set [2]. The binding result was “binds” in data set [3] (EB-47, kinked state stabilized); “binds” in data set [3] (no inhibitor, kinked DNA, E=0.87); “binds” in data set [3] (olaparib, neutral effect); “binds” in data set [3] (rucaparib); “binds” in data set [3] (talazoparib); “binds” in data set [3] (veliparib). The binding result in data set [4] is reported as “binds”.
